This experiment has as its target Parkin (human (endogenous in HCT116)) (UniProt O60260). Nature of the experiment: co-IP; lysates of HCT116 shMock and shRomo1 stable cells, and of HCT116 cells transfected with Flag-Romo1; immunoprecipitated with IgG or Parkin antibody overnight at 4 °C, protein G PLUS-Agarose beads 1 h at 4 °C; immunoblot for Bax. In general terms: Immunoblotting shows a protein as a band on a membrane.

By UniProt entry, the sequences of proteins in these tests, tags left out.
UniProt O60260: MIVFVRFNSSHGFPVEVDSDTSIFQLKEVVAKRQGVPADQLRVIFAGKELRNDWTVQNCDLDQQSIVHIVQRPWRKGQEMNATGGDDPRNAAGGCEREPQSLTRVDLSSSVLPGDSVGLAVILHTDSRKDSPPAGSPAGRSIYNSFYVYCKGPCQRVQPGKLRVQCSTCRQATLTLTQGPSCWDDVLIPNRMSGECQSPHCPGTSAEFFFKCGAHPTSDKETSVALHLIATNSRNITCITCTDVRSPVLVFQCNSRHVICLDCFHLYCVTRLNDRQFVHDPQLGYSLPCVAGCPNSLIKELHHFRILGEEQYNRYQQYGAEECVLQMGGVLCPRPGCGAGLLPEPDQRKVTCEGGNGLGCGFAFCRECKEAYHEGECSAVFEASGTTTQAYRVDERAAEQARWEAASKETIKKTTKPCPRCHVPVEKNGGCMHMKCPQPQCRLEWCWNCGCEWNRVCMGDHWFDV
UniProt Q07812: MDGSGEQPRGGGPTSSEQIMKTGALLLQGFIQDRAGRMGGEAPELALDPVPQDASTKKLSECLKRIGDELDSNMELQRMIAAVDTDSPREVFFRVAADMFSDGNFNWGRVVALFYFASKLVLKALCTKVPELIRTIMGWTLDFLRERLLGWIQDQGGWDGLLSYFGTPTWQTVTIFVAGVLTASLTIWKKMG

Our source for the binding values is article PMC7565722.

No constants are given. Whether binding was seen depends on the method and setting. In cells and extracts the contact can be indirect. Some binding calls cover weakened binding; strength is not graded here.

Regarding “BCL-2-associated X protein (Bax) (from UniProt Q07812 1-192)”, the binding entry is on record as “binds”.
